# The list shows a part of the results. Single values are uncertain, as repeats are few or missing.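 Imaging used 1,536-well plates; nuclei positive for cleaved PARP by antibody were divided by total DNA-stained nuclei to yield the apoptosis fraction. Doses for screening kept most cells viable, and cell lines differ markedly in resting and induced cleaved-PARP levels.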
# Legend:
# Test in all cases: cleaved PARP positive nuclei fraction relative to DMSO control; melanoma cells; higher = more apoptosis
# Settings in all cases: library dose: low library concentration; 72 h
# 501Mel = tested on: 501Mel
# A101D = tested on: A101D
# A2058 = tested on: A2058
# C32 = tested on: C32
# CBRC008 = tested on: CBRC008 (line from a melanoma biopsy)
# CBRC014 = tested on: CBRC014 (line from a melanoma biopsy)
# CBRC016 = tested on: CBRC016 (line from a melanoma biopsy)
# CBRC017 = tested on: CBRC017 (line from a melanoma biopsy)
# COLO792 = tested on: COLO792
# COLO800 = tested on: COLO800
# COLO829 = tested on: COLO829
# G361 = tested on: G361
# IPC-298 = tested on: IPC-298
# IST-MEL1 = tested on: IST-MEL1
# LB2518-MEL = tested on: LB2518-MEL
# LOXIMVI = tested on: LOXIMVI
Compound,cleaved PARP positive nuclei fraction (501Mel),cleaved PARP positive nuclei fraction (A101D),cleaved PARP positive nuclei fraction (A2058),cleaved PARP positive nuclei fraction (C32),cleaved PARP positive nuclei fraction (CBRC008),cleaved PARP positive nuclei fraction (CBRC014),cleaved PARP positive nuclei fraction (CBRC016),cleaved PARP positive nuclei fraction (CBRC017),cleaved PARP positive nuclei fraction (COLO792),cleaved PARP positive nuclei fraction (COLO800),cleaved PARP positive nuclei fraction (COLO829),cleaved PARP positive nuclei fraction (G361),cleaved PARP positive nuclei fraction (IPC-298),cleaved PARP positive nuclei fraction (IST-MEL1),cleaved PARP positive nuclei fraction (LB2518-MEL),cleaved PARP positive nuclei fraction (LOXIMVI)
"CCCCCCCCc1ccc(CCC(N)(CO)CO)cc1 [fingolimod] + COc1ccc2c(c1)CCC1C2CCC2(C)C(NCCCCCCN3C(=O)C=CC3=O)CCC12 [U73122] (first compound 2 µM, partner dose 0.4 µM)",127%,25.2%,225%,79.2%,152%,1130%,141%,83.6%,36.6%,30.4%,73.1%,167%,87.8%,356%,48.8%,36.9%
"Cn1sc(=O)n(Cc2ccccc2)c1=O + Oc1cc(-c2nc(-c3ccccc3)[nH]c2-c2ccncc2)ccc1Cl [L779450] (first compound 0.4 µM, partner dose 0.2 µM)",91.6%,17.1%,65.8%,99.3%,86.7%,97.3%,62.2%,83.4%,70.3%,172%,95.1%,72.6%,105%,204%,151%,71.1%
"CS(=O)(=O)c1ccc(C(=O)Nc2ccc(Cl)c(-c3ccccn3)c2)c(Cl)c1 [vismodegib] + COc1cc2ncnc(Nc3ccc(Oc4ccccc4)cc3)c2cc1OC [SrcI1] (first compound 1 µM, partner dose 2 µM)",64.4%,26.8%,62.5%,36.3%,228%,92.6%,97.5%,73.8%,71.7%,185%,41.7%,133%,50.2%,141%,55.9%,114%
"NC1(c2ccc(-c3nc4ccn5c(=O)[nH]nc5c4cc3-c3ccccc3)cc2)CCC1 + O=C1NC(=O)/C(=C/c2ccc(-c3ccc(F)cc3O)o2)S1 [AS252424] (first compound 0.4 µM, partner dose 1 µM)",26.3%,15.9%,150%,94.8%,142%,119%,73.4%,81%,165%,45.3%,102%,106%,24.2%,112%,60.3%,90.2%
"CC1(C)CCC(c2ccc(Cl)cc2)=C(CN2CCN(c3ccc(C(=O)NS(=O)(=O)c4ccc(N[C@H](CCN5CCOCC5)CSc5ccccc5)c(S(=O)(=O)C(F)(F)F)c4)cc3)CC2)C1 + O=S(=O)(c1ccccc1)N(CC(F)(F)F)c1ccc(C(O)(C(F)(F)F)C(F)(F)F)cc1 [T0901317] (first compound 0.4 µM, partner dose 1.4 µM)",191%,83.6%,61.3%,292%,157%,579%,529%,507%,224%,51.4%,55.9%,387%,204%,81%,76.1%,124%
"COc1ccc(C2=N[C@@H](c3ccc(Cl)cc3)[C@@H](c3ccc(Cl)cc3)N2C(=O)N2CCNC(=O)C2)c(OC(C)C)c1 [Nutlin-3] + COc1ccc(-c2ccc3c(N4CCOCC4)nc(N4C[C@@H](C)O[C@@H](C)C4)nc3n2)cc1CO [KU0063794] (first compound 0.1 µM, partner dose 0.02 µM)",67.7%,22.6%,22.6%,84.4%,108%,82%,73.8%,80.6%,54.7%,68.3%,61.7%,96.4%,95.5%,142%,82.8%,73.1%
"COc1ccc(C2=N[C@@H](c3ccc(Cl)cc3)[C@@H](c3ccc(Cl)cc3)N2C(=O)N2CCNC(=O)C2)c(OC(C)C)c1 [Nutlin-3] + CC(C)CCN1c2nc(Nc3cc(F)c(O)c(F)c3)ncc2N(C)C(=O)C1C [BID1870] (first compound 0.1 µM, partner dose 0.2 µM)",80%,25.9%,68.7%,70%,290%,103%,106%,111%,141%,124%,128%,71.4%,49.3%,59.4%,80.1%,242%
"C[C@@H](N)c1ccc(C(=O)Nc2ccnc3[nH]ccc23)cc1 + CC(C)CCN1c2nc(Nc3cc(F)c(O)c(F)c3)ncc2N(C)C(=O)C1C [BID1870] (first compound 0.4 µM, partner dose 0.2 µM)",72.3%,51.1%,273%,181%,174%,132%,118%,120%,119%,108%,93.1%,111%,141%,142%,265%,454%

# — the supplement of paper PMC4604168 (melanoma cell lines)
